Measurements taken from PMC8532962 (Antibiotics, 2021).
Peptide text beside a SMILES is read from it.

Assay: Helical structure by circular dichroism
Assay type: physicochemical
Details: CD, 25 °C, peptide 100 μg/mL; for [θ]222 50% TFE / [θ]222 Water: 1 mm cell, average of three scans
[1] = calculated from [θ]222 with 0% = −2340 and 100% = −30,300

SMILES	[θ]222 50% TFE (50% TFE in water)	% Helix 50% TFE (50% TFE in water, calculated from [θ]222 with 0% = −2340 and 100% = −30,300) [%]	[θ]222 Water [deg · cm^2 · dmol^−1]	% Helix Water [1] [%]
CC[C@H](C)[C@H](N)C(=O)N[C@@H](CC(N)=O)C(=O)N[C@@H](CCCCN)C(=O)N[C@@H](CC(C)C)C(=O)N[C@H](C(=O)N[C@H](C(=O)N[C@@H](CCCCN)C(=O)N[C@H](C(=O)NCC(=O)N[C@@H](CCCCN)C(=O)N[C@H](C(=O)N[C@H](C(=O)N[C@@H](CO)C(=O)N[C@@H](CC(C)C)C(N)=O)C(C)C)[C@@H](C)CC)C(C)C)[C@@H](C)CC)C(C)C [EMP-AF-KV] (H-INKLVIKVGKIVSL-NH2)	−13,692.93 deg · cm^2 · dmol^−1	37.47	−4719.43	7.85
CC[C@H](C)[C@H](N)C(=O)N[C@@H](CC(N)=O)C(=O)N[C@@H](CC(C)C)C(=O)N[C@@H](CC(C)C)C(=O)N[C@@H](CCCCN)C(=O)N[C@H](C(=O)N[C@@H](C)C(=O)N[C@@H](CCCCN)C(=O)NCC(=O)N[C@H](C(=O)N[C@H](C(=O)N[C@@H](CCCCN)C(=O)N[C@@H](CO)C(=O)N[C@@H](CC(C)C)C(N)=O)[C@@H](C)CC)[C@@H](C)CC)[C@@H](C)CC [EMP-AF-OR] (H-INLLKIAKGIIKSL-NH2)	−47,630.55 deg · cm^2 · dmol^−1	–	−7711.94	17.73
